# Experimental data: patent US20020198172A1, “Method of treating motor neuron diseases and demyelinating diseases with citicoline” (priority 1997, published 2002)
# For at least one compound, name, drawing or mass did not settle the structure.
# Legend:
# [1] = system: patient with chronic progressive multiple sclerosis; format: in vivo; settings: patient history since around 1986
# From the text: Currently, they are diagnosed with chronic-progressive multiple sclerosis. They are afflicted with visual impairments, chronic fatigue, difficulty with speech articulation, tremors in the right and left hands, decreased fine motor movement in the right greater than left hands and decreased motor strength in their lower extremities. They are without weight bearing and is confined to a wheelchair. When asked what their major barriers are as far as functional abilities on a day to day basis, they place fatigue at the top of their impairment list followed by speech difficulties and decreased fine motor movement of their hands. They experienced marked spasticity of their lower extremities with the progression of their neurological condition over the course of several years and eventually resorted to a baclofen pump which was implanted in 1997. […] They receive 85 micrograms of baclofen per day.
# [2] = system: Experimental allergic encephalomyelitis (EAE); assay: Experimental allergic encephalomyelitis (EAE) model for MS, treatment beginning 9 days after inoculation (Example 1); format: in vivo, female Lewis rats; settings: FIG. 1
# [3] = system: experimental autoimmune encephalomyelitis; assay: EAE prevention therapy, daily functional score (Example 2); format: in vivo, female Lewis rats; settings: citicoline 500 or 1000 mg/kg i.p.
# Procedure: Thirty-two female Lewis rats are divided into four groups of eight each and on day one administered saline, citicoline (500 or 1000 mg/kg, i.p.), or dexamethasone (0.0375 mg/kg), respectively. Dexamethasone acts as a positive control through its ability to suppress immune function. […] Therapy is continued daily. […] Numerical values are averages of the functional scores in each treatment group from Days 14-21 of the study.
# [4] = system: transgenic mice expressing familial ALS-linked mutations in the cytoplasmic enzyme SOD1; assay: ALS animal model (Example 5); format: in vivo; settings: 500 mg/kg citicoline i.p. five days a week, about three months
# [5] = system: patients with chronic multiple sclerosis; assay: Human study in chronic multiple sclerosis, EDSS and SNRS (Example 6); format: in vivo; settings: 250, 500, or 1,000 mg each patient each day for six months
# Procedure: A study of two sets of four patients each with chronic multiple sclerosis is undertaken. Each patient is first examined for normal hepatic, renal, and bone marrow functioning to establish baseline values. Each of the patients in each group is then treated either with citicoline dissolved in sterile preservative-free isotonic saline 10% or oral tablet or capsule. The citicoline is administered orally or intravenously at a dosage of 250, 500, or 1,000 mg each patient each day for six months. Patients are examined on a daily basis. During the treatment period, daily blood counts and twice weekly blood chemistries are performed on each patient. The neurologic function of each of these patients is measured using the expanded Krutzke disability status scale (EDSS), and the Scripps neurologic rating scale (SNRS).
# [6] = system: patients with bulbar palsy caused by ALS; assay: Human study in bulbar palsy caused by ALS (Example 7); format: in vivo
# Procedure: Six patients with bulbar palsy caused by ALS are treated with 500-1000 mg each citicoline by injection (monosodium salt dissolved in 10 ml sterile isotonic solution of sodium chloride) or by a solid tablet or soft gel capsule orally and administered daily.
# [7] = system: patients who have suffered from multiple sclerosis; assay: Human study in multiple sclerosis, oral citicoline (Example 9); format: in vivo; settings: approximately 1000 mg oral citicoline daily
# [8] = system: patients diagnosed with ALS; assay: Human study in ALS, oral citicoline and exercise program (Example 10); format: in vivo; settings: 250 mg/day oral citicoline and exercise program; three months after therapy initiation
# [9] = system: patients diagnosed with Charcot-Marie Tooth disease; assay: Human study in Charcot-Marie Tooth disease (Example 11); format: in vivo; settings: 750 mg oral citicoline daily; after 12 weeks
# [10] = system: patients diagnosed with Friedreich's ataxia; assay: Human study in Friedreich's ataxia (Example 12); format: in vivo; settings: 500 mg oral citicoline daily; after four weeks
structure (smiles),measurement,setting,value
C[C@H]1C[C@@H]2[C@H]([C@@H](O)C[C@@]3(C)[C@H]2CC[C@]3(O)C(=O)CO)[C@@]2(C)C=CC(=O)C=C12 [Methylprednisolone],effect of earlier treatment on multiple sclerosis,[1],marginal effects
C[C@@H]1C[C@H]2[C@@H]3CCC4=CC(=O)C=C[C@]4(C)[C@@]3(F)[C@@H](O)C[C@]2(C)[C@@]1(O)C(=O)CO [Dexamethasone],progress of EAE (disability scale of 0-4),[2]; dexamethasone approximately 0.0375 mg/kg s.c. daily beginning 9 days after inoculation,inhibits the progress of EAE initially
"C[N+](C)(C)CCOP(=O)(O)OP(=O)([O-])OC[C@H]1O[C@@H](n2ccc(N)nc2=O)[C@H](O)[C@@H]1O [citicoline, cytidine-5′-diphosphocholine]",progress of EAE (disability scale of 0-4),"[2]; citicoline 500 mg/kg i.p. daily beginning 9 days after inoculation, approximately 17 days",inhibits the progress of EAE
same,deterioration of motor function compared to the saline group,[3],markedly reduces the rapid deterioration of motor function
same,motor behavior of treated animals,[4],improvements in the motor behavior
same,neurologic function using the EDSS and SNRS scales,[5],evidence of improvement
same,bulbar symptoms,"[6]; 500-1000 mg citicoline daily by injection or orally, six patients",remarkable improvements in bulbar symptoms
same,ability to speak,"[6]; 500-1000 mg citicoline daily, after 21 days of treatment",all six patients (three in each group) being able to speak
same,status of the disease as reported by patients,[7]; after about 10 weeks,feeling better than at any time in the previous year
same,walking ability,[7]; within two to four additional weeks after about 10 weeks,all patients are able to walk longer distances
same,worsening of condition,[8],minimal compared to baseline ALS progression
same,clinical improvement,[9],progressive improvement is observed in each case
same,clinical improvement,[10],progressive improvement is observed in each case
